This note sets out measurements from the odorant receptor screen of Mainland et al. (2015).

This is one part of the list. Each value is one well over the wells without odorant, computed here; the data are noisy.

This test concerns OR4A5 clone 1637. The test is described as follows: odorant receptor activation (CRE luciferase / Renilla) (fold of no-odor wells); higher = more activation. The conditions noted are these: 100 µM.
In turn, `CCCCCCCOC(C)=O` [heptyl acetate] came in with an odorant receptor activation of 0.678.

The molecule `COc1ccccc1O` [guaiacol] registered an odorant receptor activation of 0.915.

Turning to `C=C(C)C1CCC2=CC(=O)CC(C)C2(C)C1` (stereo not given) [amyl laurate], the odorant receptor activation is 1.2.

With `CC(=O)OCC=C(C)CCC=C(C)C` [geranyl acetate], the odorant receptor activation was determined as 1.57.

Molecule `CC(=O)OC1CC2CCC1(C)C2(C)C` (stereo not given) [isobornyl acetate] displayed an odorant receptor activation of 0.981.

As to `CCCCCOC(C)=O` [n-amyl acetate], the odorant receptor activation turned out to be 1.26.

As to `CCCCCCOC(=O)CCC` [hexyl butyrate], the odorant receptor activation worked out at 0.908.

The molecule `CCC1(O)C2(C)CCC(C2)C1(C)C` (stereo not given) [2-ethylfenchol] gave an odorant receptor activation of 0.829.

Turning to `C=C(C)C1CC=CCC1` (stereo not given) [r-limonene], the odorant receptor activation worked out at 1.1.

As to `CCCCCCC=O` [heptaldehyde], the odorant receptor activation was 0.888.

In turn, `CC(C)CC(=O)O` [isovaleric acid] yielded an odorant receptor activation of 1.02.

`CC(C)(O)CCCC1=CCC(C=O)CC1` (stereo not given) [lyral]: the odorant receptor activation was 1.38.

On to `O=C1CCCCCCCCCCCCCCO1` [pentadecalactone], for which the odorant receptor activation worked out at 0.702.

For the molecule `CCCCCC(=O)O` [caproic acid], the odorant receptor activation came out at 0.792.

`CCCCCCCCCCC=O` [undecanal] showed an odorant receptor activation of 0.531.

Turning to `C=CCc1ccc(O)c(OC)c1` [eugenol], the odorant receptor activation is 1.25.

For the molecule `CCCCCCCC=CC=O` [2-decenal], the odorant receptor activation worked out at 1.34.

As for `CC(C)C=O` [isobutyraldehyde], the odorant receptor activation is 0.928.

Consider `c1cnccn1` [pyrazine], for which the odorant receptor activation is 0.643.

`CC(C)C(=O)O` [isobutyric acid] came in with an odorant receptor activation of 0.822.
